Results deposited as PubChem BioAssay AID1259308 (NCATS, 2017).

Assay: 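Knock-downs that increase output of a recombinant reporter protein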 (primary screen)
System: human HEK293 embryonic kidney cells stably expressing firefly luciferase (HEK-CMV-Luc2-Hygro)
Reagents: single siRNA against human genes, 0.8 pmol siRNA per well
Time to read-out: 72 h
Measurement: 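Reporter luminescence and viable-cell signal on separate replicate plates, given as percent of non-targeting control and median/MAD z-scores, plus per-cell luciferase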
Scale: total luciferase, z-score and total luciferase, % of control: higher = more reporter protein produced; luciferase per cell, z-score: higher = more reporter output per viable cell; viable cells, % of control: higher = more viable cells
Rule for the call: 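An siRNA counts as active if its total luciferase robust z-score exceeds 3; genes with two or more such siRNAs out of three were retested with fresh siRNAs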
Meaning of the calls: active = raised luciferase; inactive = no rise
The deposit covers about 59,000 reagents; shown is a part drawn at random. In the full data, about 1,510 (2.6%) were called active. 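Calls use total luciferase alone and ignore viability, so some active siRNAs may act by altering cell number.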 Reagents against one gene are numbered here.

Gene,reagent no.,"total luciferase, z-score","total luciferase, % of control","luciferase per cell, z-score","viable cells, % of control",Call
IDO2 (GeneID 169355),1,2.59,133,1.62,97.2,inactive
IDO2 (GeneID 169355),2,-0.571,70.5,-0.39,87.4,inactive
IDO2 (GeneID 169355),3,-0.502,71.9,0.0244,79.8,inactive
CYP3A5 (GeneID 1577),1,2.14,124,1.11,104,inactive
CYP3A5 (GeneID 1577),2,-0.00189,81.8,0.384,82.7,inactive
CYP3A5 (GeneID 1577),3,-0.658,68.8,-0.934,98.3,inactive
LRBA (GeneID 987),1,2.06,123,1.7,87.8,inactive
LRBA (GeneID 987),2,-0.403,73.9,-0.551,95.4,inactive
LRBA (GeneID 987),3,0.125,84.4,-0.132,97.6,inactive
WASHC5 (GeneID 9897),1,-0.143,79,-0.666,105,inactive
WASHC5 (GeneID 9897),2,0.33,88.4,-0.151,103,inactive
WASHC5 (GeneID 9897),3,-1.29,56.3,-1.09,83.7,inactive
FBRSL1 (GeneID 57666),1,-1.05,61,-0.823,84.6,inactive
FBRSL1 (GeneID 57666),2,-0.417,73.6,-0.22,87.1,inactive
FBRSL1 (GeneID 57666),3,1.96,121,0.613,115,inactive
FBRSL1 (GeneID 57666),4,1.06,103,1.48,77.9,inactive
FBRSL1 (GeneID 57666),5,-0.254,76.8,-0.628,101,inactive
FBRSL1 (GeneID 57666),6,0.837,98.5,-0.0214,111,inactive
DPF1 (GeneID 8193),1,2.25,127,1.38,98.5,inactive
DPF1 (GeneID 8193),2,1.11,104,0.161,111,inactive
DPF1 (GeneID 8193),3,-0.204,77.8,-0.278,93.6,inactive
NRG4 (GeneID 145957),1,0.151,84.9,-0.287,102,inactive
NRG4 (GeneID 145957),2,-1.87,44.7,-0.58,58.2,inactive
NRG4 (GeneID 145957),3,-0.15,78.9,-0.685,106,inactive
